Values of other authors in patent US20050256077A1, “Gastrointestinal stem cells and uses thereof” (priority 2004, published 2005).
Some entries share one result that the patent states for a list of compounds.

System: crypts of the mouse small intestine
Settings: following i.p. administration (Ijiri and Potten, 1987); cited from earlier work

COc1cccc2c1C(=O)c1c(O)c3c(c(O)c1C2=O)C[C@@](O)(C(=O)CO)C[C@@H]3O[C@H]1C[C@H](N)[C@H](O)[C@H](C)O1 [DOX, doxorubicin]
time to complete cessation of mitosis: ≤ 3 h
